Data published in publication PMC4320627, “Transcription factor MrpC binds to promoter regions of hundreds of developmentally-regulated genes in Myxococcus xanthus”.

Columns and labels:
[1] = target: T1, His10-MrpC2 (Myxococcus xanthus) (UniProt Q1D244); assay: EMSA; details: 2 nM 32P-labeled DNA, 25 C, 15 min, recombinant protein, protein details: N-terminal His10, label: 32P
T1 sequence (looked up, limits assumed): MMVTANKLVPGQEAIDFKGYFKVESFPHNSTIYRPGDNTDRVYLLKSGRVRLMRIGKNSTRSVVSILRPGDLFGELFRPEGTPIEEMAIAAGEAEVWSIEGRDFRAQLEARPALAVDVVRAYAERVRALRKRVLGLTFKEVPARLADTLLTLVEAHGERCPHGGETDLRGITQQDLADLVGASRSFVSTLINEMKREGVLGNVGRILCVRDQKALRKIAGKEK

His10-MrpC2 + FruA-His6 = assay: EMSA; details: cooperative, 2 nM 32P-labeled DNA, 25 C, 15 min, recombinant protein, protein details: N-terminal His10,C-terminal His6, label: 32P, probe letters rebuilt from the primers and the genome
[2] = 1 uM protein, probe letters rebuilt from the primers and the genome

Sequence | binding result ([1]; 1 uM protein) | binding result (His10-MrpC2 + FruA-His6) | binding result [1, 2] | other results
AAACCTGGAAATGTTCACTGGTTGTCGAAGAGAAAAGGC (double strand) [bsgA (MXAN_3993) oligo] | binds |  |  | 
CAAGGTGATGATGTGCGTCGAGGCTATCGGCCATGTGCGGGAGCGTCAATGTTCGGACCGGGCGGAATTCCGGCTGCCCGGGGAGCGGGCAAGCGCCGTCACACAGCCGACGTTTCCGTCACTGAGGGTACGTCGGGTACGTCACTGGCTCGACGGAGATGGGCGGCCAGGAGTGCGGCGTGCGCGGCGCGGGCGGGAGCGAATACAGCGGCTCG (double strand) [frzS PCR] |  | binds | binds | 
CACTTGGATAAGTGTTCAGCGCCTAACTATAACGCCCCC (double strand) [MXAN_6247 oligo] | binds |  |  | 
CAGAGGCCCCTTGTCCACTCATCAACAGAGCAAGCCCCC (double strand) [MXAN_6500 oligo] | binds |  |  | 
CATCGCGGCTGTGTTCACTACGTGTCGGAGTATGAGTGG (double strand) [MXAN_4064 oligo] | binds |  |  | 
CCAGGGAACGTAGAAGTCTGGCAGTTCGAATGGCTGCTTGTTTTTCGCCGTACTCATGGACGCCCCTCGTTGAACTCAGGGGGGCGTTATAGTTAGGCGCTGAACACTTATCCAAGTGTTTCTTGCATAAAAGATTCTCTGGAGAAGTCGCGATTTGCCTGCTGGCGCACGGATTTAGCTCCATCCGTGCGCCGTATTGCTC (double strand) [MXAN_6247 PCR] |  | binds | binds | 
CGAGCTCCTGTGAACCGAAGTCATGCTGCTGGTAGGAGCCCGCTGGGTCTGCCCAGACCTCGCCAATGAGGCGCTGGTCCATTAATTGCTCAACGCAACAACTTGCGAAGCAGTCTGTCGGCTACTTGACCGTGCTTGCCAGTGAATGAGAAGTGACGCCTGCGTGCTGACCGTAATGGGACAGGCGGGGACCATGTATATGAGGTGGAAGAAGC (double strand) [MXAN_5802 PCR] |  | binds |  | binding result ([1]; 1 uM, 3 complexes, probe letters rebuilt from the primers and the genome): binds
CTCGTTTACGAACTCGTCTGGTCCAAGTACCTCGGGAATGTCCTGGGGAACAGCGGCCAGGCGCATGCCGTGGTGCTCGCCACGTTCATGGGAGGGCAAGCGCTGGGCGCATTTGTCTTCGGGCGGACAGCCGACCGGGCAAAGAACCCCCTGGCCCTTTACGGCCTGCTGGAGCTGGGCGTGGGCCTGTACGCGCTGGTCTTC (double strand) [mrpA PCR] |  | binds | binds | 
GACGCCCGGGCGTGTCCGGCTCCGGACAGCGATGACGAA (double strand) [fruA (MXAN_3117) oligo] | binds |  |  | 
GATTAGCACTACGCATGCCAACCCAGGTGCGCACTCCAAGCCCCCCAATTCTCAAGGCTTGGAACAATCCCCTCGGCGAGGATGGGTCCAGGGCTGACAAAATTCGGCAGTGACGCTGACGATAACTGTCGATCAGCCTACGCATCCGAAGCGCTCCCGGGCTCCAAGTCATCCGTCAGCCCATGCTTGGCCAACCGGTAGCGGAATGAACGGAACGAAAG (double strand) [pilA PCR] |  |  | binds | 
GCGAAGCAGTCTGTCGGCTACTTGACCGTGCTTGCCAGT (double strand) [MXAN_5802 oligo] | binds |  |  | 
GCGGTTCACTGTGTTTGCTAAGGGACAATCAAGGCCGTG (double strand) [pkn8 (MXAN_1710) oligo] | binds |  |  | 
GGATTTGCCTTTGCACCTCCAGAACCACCAGTGGGTGAAACAATGTCAACGGGAGTCCTTCGCCACGGCCTTGATTGTCCCTTAGCAAACACAGTGAACCGCACAGCGACAAGGCAGGAATTCGCCCACGCTGGACTCACGGCACGTCGGAAGCATCTCTTGGGAATCAAGAATTGAGTGAGGTCCATCGCCCTGCAATCGATGGCAAAGAG (double strand) [pkn8 PCR] |  | binds |  | binding result ([1]; 1 uM, one protein bound, probe letters rebuilt from the primers and the genome): binds
GGCCGACATCAATGTTCGACAGTGGCCACGCCCACGTCT (double strand) [MXAN_6947 oligo] | binds |  |  | 
GGCGAACGGGACTTTCCTTCTCCAAGGTTCGTGCCAGCGGGAATTGAAATGCCGCCGGGACAACACCTCCTGAAATGCCGGGTACTTAGCGCTACAGGCCCGCACCAGAGCCCGTTCTGTGTCCAAAACCTGAAACAGAACGTTCAAACAGTCTGATCAATTTGAACGAAACGTTCAAACCGGGGGCATGAGTGTCGGAGCAG (double strand) [mrpC upstream PCR] |  | binds |  | binding result ([1]; 0.5-1 uM protein, multiple complexes, probe letters rebuilt from the primers and the genome): binds
GTACCAACTCGCGCACGTCGGGTGCGGGCAGTCCGTAGCGCTGGCCGTTCAGGGTGAACAGCAGCACCTCCGTGGGTGCGGGGGTCATGTCCTGGGACATAAGACGTGGGCGTGGCCACTGTCGAACATTGATGTCGGCCCGCGGTCGCGGTGTCCACCAGTCCTCAGTGGAGGCAGGAGGAGGGGCCCATGGTTCGGGGGGAACACGACAGGTGCTCGCTGTGC (double strand) [cheW6a PCR] |  | binds | binds | 
GTCTTCCTTGTTGATGAGCCCCGGAGGGGCCATCGCGGTGGGCATAGCGCTCGCAGCGGAGCCCTTCTTCTTCTCATCGGACATGAAATTCAGCCTTTTCTCTTCGACAACCAGTGAACATTTCCAGGTTTTCTGCGGCGGATGAACCAACGTAACAACCAAAACGGACATGGCAAACGCAGTGTGCGTTTTTCCGCCCCCCGTCACCTCTCCAGGGTTCCTCGGAAGTC (double strand) [bsgA PCR] |  | binds |  | binding result ([1]; 1 uM, mainly one protein bound, probe letters rebuilt from the primers and the genome): binds
GTGGGCATCCACGAAGCGCGCCCCGGACTGGTGCGCCCCCTGCTGTCGTGCACGCGGGAGGAGGTGGTGGCCTTCCTGGCGGAGCAGGGTGTCGCCTATGTGACAGACCCGATGAACACCGACCCTGTCCACTTCCGGACGCGCGTTCGCCTTGGAGTGCTACCCGCCCTGTCGCGCGCCGCTGGCTTCGCGGTGGAGG (double strand) [MXAN_4360 PCR] |  | binds | binds | 
GTTCATCGGGTCTGTCACATAGGCGACACCCTGCTCCGC (double strand) [MXAN_4360 oligo] | binds |  |  | 

The exact form of at least one protein or probe is not confirmed. For some of these results: At least one verdict rests on a figure or table, not on a statement of the authors. For some of these results: Tags and fusion partners may be left off the protein sequences shown.
